Tests used:
[1] = target: T1, Bovine Serum Albumin (BSA) (Bos taurus, UniProt P02769); experiment: ThermoFluor thermal shift assay with bovine serum albumin; type: binding; conditions: Example 4, Table 3
T1 construct: The above albumins were prepared using method IV of Cohn et al. (J. Am. Chem. Soc. 69: 1753-1761, 1947) and purified with 1× crystallization; purchased Sigma A-7638
Source text: (§1) To evaluate the bioavailability of a compound in various species, the compound's affinity and specificity to albumins from human, bovine, rat, and mouse were examined. […] The resulting 1× reaction mixture comprising human serum albumin, bovine serum albumin, rat serum albumin, or mouse serum albumin was used with a panel of compounds in the binding assay.

Chains of the proteins cited; added tags and fusions are not shown. Residues count along the entry.
UniProt P02769, 25-607: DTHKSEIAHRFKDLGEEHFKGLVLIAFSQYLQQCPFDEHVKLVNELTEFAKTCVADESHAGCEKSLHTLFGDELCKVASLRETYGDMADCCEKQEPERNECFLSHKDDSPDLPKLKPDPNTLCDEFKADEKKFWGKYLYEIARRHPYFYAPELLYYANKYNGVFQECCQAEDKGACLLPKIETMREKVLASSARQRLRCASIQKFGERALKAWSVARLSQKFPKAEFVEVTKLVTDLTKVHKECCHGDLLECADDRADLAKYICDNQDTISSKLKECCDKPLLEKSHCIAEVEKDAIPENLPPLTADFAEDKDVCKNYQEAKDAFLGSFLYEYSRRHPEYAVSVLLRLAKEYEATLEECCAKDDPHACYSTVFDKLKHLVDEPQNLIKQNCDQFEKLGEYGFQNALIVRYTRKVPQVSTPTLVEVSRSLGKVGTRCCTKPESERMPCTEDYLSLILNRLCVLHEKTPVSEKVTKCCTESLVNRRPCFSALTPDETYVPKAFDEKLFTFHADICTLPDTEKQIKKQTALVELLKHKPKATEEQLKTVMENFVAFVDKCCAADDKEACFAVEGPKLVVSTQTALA
UniProt P02768, 25-609: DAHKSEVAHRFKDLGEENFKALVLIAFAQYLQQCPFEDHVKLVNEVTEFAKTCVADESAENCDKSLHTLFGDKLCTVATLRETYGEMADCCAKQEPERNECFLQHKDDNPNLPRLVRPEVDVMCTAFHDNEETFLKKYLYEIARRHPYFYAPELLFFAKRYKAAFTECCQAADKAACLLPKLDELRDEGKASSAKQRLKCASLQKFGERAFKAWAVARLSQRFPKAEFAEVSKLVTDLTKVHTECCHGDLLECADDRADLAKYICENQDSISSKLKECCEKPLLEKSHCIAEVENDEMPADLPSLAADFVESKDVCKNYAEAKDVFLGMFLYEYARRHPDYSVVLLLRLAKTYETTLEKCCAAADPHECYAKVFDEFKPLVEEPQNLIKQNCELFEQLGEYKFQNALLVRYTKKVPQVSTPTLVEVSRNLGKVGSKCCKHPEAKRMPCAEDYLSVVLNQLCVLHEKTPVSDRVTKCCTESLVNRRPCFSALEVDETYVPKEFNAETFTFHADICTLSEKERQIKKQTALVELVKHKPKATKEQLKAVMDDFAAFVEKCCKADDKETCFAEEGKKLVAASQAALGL
UniProt P07724, 25-608: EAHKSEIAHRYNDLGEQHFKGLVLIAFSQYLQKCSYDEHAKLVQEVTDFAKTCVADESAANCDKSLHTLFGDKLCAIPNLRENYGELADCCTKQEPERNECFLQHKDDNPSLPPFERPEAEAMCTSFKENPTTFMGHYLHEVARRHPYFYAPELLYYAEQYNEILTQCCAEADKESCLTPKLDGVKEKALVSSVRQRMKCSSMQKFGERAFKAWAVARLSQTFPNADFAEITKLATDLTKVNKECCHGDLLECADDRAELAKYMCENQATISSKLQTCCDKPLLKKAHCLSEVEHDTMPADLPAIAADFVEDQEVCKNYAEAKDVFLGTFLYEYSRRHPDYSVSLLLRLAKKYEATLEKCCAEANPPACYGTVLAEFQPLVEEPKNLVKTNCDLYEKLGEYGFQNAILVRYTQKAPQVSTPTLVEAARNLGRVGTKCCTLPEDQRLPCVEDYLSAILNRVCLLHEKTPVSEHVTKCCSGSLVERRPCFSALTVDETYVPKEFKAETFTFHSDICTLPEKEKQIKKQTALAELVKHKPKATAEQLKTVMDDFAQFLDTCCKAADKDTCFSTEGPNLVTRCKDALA
UniProt P02770, 25-608: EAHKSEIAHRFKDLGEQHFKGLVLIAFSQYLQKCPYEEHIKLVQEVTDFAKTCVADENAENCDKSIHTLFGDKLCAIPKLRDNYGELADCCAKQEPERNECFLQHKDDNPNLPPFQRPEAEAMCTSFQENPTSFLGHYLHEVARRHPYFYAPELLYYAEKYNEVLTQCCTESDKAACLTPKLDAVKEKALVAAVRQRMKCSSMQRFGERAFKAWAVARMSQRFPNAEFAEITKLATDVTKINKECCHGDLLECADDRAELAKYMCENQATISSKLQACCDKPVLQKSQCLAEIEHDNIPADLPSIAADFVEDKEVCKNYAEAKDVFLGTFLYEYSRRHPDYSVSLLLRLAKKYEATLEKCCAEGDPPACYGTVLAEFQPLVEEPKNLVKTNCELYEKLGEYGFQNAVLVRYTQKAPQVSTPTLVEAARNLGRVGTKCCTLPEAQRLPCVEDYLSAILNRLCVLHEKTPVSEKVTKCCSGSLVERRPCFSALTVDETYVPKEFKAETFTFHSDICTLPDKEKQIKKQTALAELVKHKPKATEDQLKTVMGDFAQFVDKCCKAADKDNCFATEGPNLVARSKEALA

HSA = HSA (Homo sapiens, UniProt P02768); conditions: binding site on HSA from previous reports; cited from earlier work
Mouse Serum Albumin = target: T2, Mouse Serum Albumin (Mus musculus, UniProt P07724); experiment: ThermoFluor thermal shift assay with mouse serum albumin; type: binding; conditions: Example 4, Table 3
T2 construct: The above albumins were prepared using method IV of Cohn et al. (J. Am. Chem. Soc. 69: 1753-1761, 1947) and purified with 1× crystallization; purchased Sigma A-3559
Source text: as §1

[2] = target: Human Serum Albumin (HSA) (Homo sapiens, UniProt P02768); experiment: ThermoFluor thermal shift assay with human serum albumin; conditions: for Type of HSA Binding Interaction: classified from KD versus IC50 and % displacement of 1,8-ANS
Procedure: 1× reaction mixture of about 50 μg/mL human serum albumin, about 4 μM 1,8-ANS, about 150 mM NaCl, about 25 mM PIPES, pH 7.2, and about 0.002% Tween®-20 was prepared.
To prevent evaporation, about 1 μL of silicone oil was added to the plate using multichannel pipettors.
The plates were loaded onto a ThermoFluor® device and heated from about 25° C. to about 95° C. at a ramp-rate of about 1° C. per minute. Fluorescence was measured by continuous illumination with UV light (Hamamatsu LC6) via fiber optic and filtered through a band-pass filter of about 390±10 nm; >6 OD cutoff. Fluorescence emissions were detected by measuring light intensity using a CCD camera (Sensys, Roper Scientific) filtered to detect about 500±25 nm; >6 OD cutoff. This allows for the entire plate to be simultaneously monitored and each sample to be independently monitored. One or more images were collected at an interval of every about 0.5° C. to about 1° C. The sum of the pixel intensity at a given area of the plate was recorded vs. temperature.
The values of Tm, ΔH, yF,Tm, mF, yU,Tm and mU were calculated for each sample according to Equation 9. Further, the value of Tm over the compound concentration was used to calculate the binding constant (KD) using Equation 10b. A shift in the denaturation curve of albumin indicates whether the compound binds to albumin, and the value of KD indicates the binding strength of compounds to albumin. A shift of the fluorescence signal indicates the specificity of compounds to albumin, and the value of IC50 indicates the binding strength to the site I (Equation 11).
The compounds and 1× reaction mixture were dispensed and measured for the fluorescence value using the plate-based reader Tecan® Safire II. Then the plate was heated in a ThermoFluor® system and measured for fluorescence value and the thermal shift value. The fluorescence values were measured twice by both plate reader and ThermoFluor®. The fluorescence value obtained from ThermoFluor® was used for qualitative assessment whereas those from the plate reader was used for quantitative assessment. The value of IC50 was determined by the fluorescence obtained from the plate reader and was fit using Equation 11 described above. The value of KD was determined by the readings from ThermoFluor® and was fit using Equation 10b described above.

Rat Serum Albumin = target: T3, Rat Serum Albumin (Rattus norvegicus, UniProt P02770); experiment: ThermoFluor thermal shift assay with rat serum albumin; type: binding; conditions: Example 4, Table 3
T3 construct: The above albumins were prepared using method IV of Cohn et al. (J. Am. Chem. Soc. 69: 1753-1761, 1947) and purified with 1× crystallization; purchased Sigma A-6414
Source text: as §1

[3] = target: Human Serum Albumin (HSA) site I (Homo sapiens, UniProt P02768); experiment: 1,8-ANS site-specific probe displacement (fluorescence) from HSA site I; conditions: percent displacement of the site-specific probe 1,8-ANS at the second highest concentration of test ligand
Source text: In addition to the thermal shift assay, the assay test plate may be utilized in a separate fluorescence measurement using a plate-based reader that is compatible with any relevant wavelengths. The preferred plate-based reader is Tecan Satire II. The displacement of site-specific probe such as 1,8-ANS from albumin site 1 by test ligand may cause a decrease in observed fluorescence that may be fit to Equation 11 to determine the value of IC50.
Additionally, the percent displacement may be determined by (y−yhigh), divided by the difference of low (y0) and high endpoints (yhigh), wherein y is determined at the second highest concentration. […]
The values of Tm, ΔH, yF,Tm, mF, yU,Tm and mU were calculated for each sample according to Equation 9. […] A shift of the fluorescence signal indicates the specificity of compounds to albumin, and the value of IC50 indicates the binding strength to the site I (Equation 11).
The compounds and 1× reaction mixture were dispensed and measured for the fluorescence value using the plate-based reader Tecan® Safire II. Then the plate was heated in a ThermoFluor® system and measured for fluorescence value and the thermal shift value. The fluorescence values were measured twice by both plate reader and ThermoFluor®. […] The value of IC50 was determined by the fluorescence obtained from the plate reader and was fit using Equation 11 described above. […]

Kd [1] [µM] | Kd (Mouse Serum Albumin) [µM] | Type of HSA Binding Interaction [2] | Kd (Rat Serum Albumin) [µM] | % Displacement [3] | Kd ([2]; HSA - KD, Example 3, Table 2, ThermoFluor, Equation 10b) [µM] | Kd ([2]; Human Albumin (KD), Example 4, Table 3) [µM] | Compound | Reported Binding Site (HSA)
16.1 | 11.3 | Type 2 | 18.5 | (02) % | – | – | COc1ccc2cc([C@H](C)C(=O)O)ccc2c1 [S-Naproxen, s-naproxen] | Site 2
49.1 | – | Type 2 | 24 | (18) % | 16.7 | 16.7 | NS(=O)(=O)c1cc(C(=O)O)c(NCc2ccco2)cc1Cl [Furosemide, furosemide] | Site 1

Source: US8476081B2, “Assay for evaluating affinity and specificity of ligand-albumin binding” (Janssen Pharmaceutica NV, priority 2009, dated 2013)
